Measurements taken from the supplement of paper PMC12823440, “Inhibitors supercharge kinase turnover through native proteolytic circuits” (Nature, 2025).
Counter-ions that a name gives are not always drawn. The list shows a part of the results. Hit calls seldom repeat between salt and free forms of one compound.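 Kinases, fused to nanoluciferase, were expressed in K562 cells; luminescence was measured every 4 h from 2 to 18 h as percent of control (DMSO = 100%, positive control = 0%). A time point is decreased if signal falls significantly (2 sigma). Hits were called by the authors by a rule that is not shown; the count of time points alone does not decide it.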

Chains of the proteins cited; added tags and fusions are not shown. Lines headed by an entry give the natural chain unless they say otherwise; changes in a name come on top.
UniProt O15530: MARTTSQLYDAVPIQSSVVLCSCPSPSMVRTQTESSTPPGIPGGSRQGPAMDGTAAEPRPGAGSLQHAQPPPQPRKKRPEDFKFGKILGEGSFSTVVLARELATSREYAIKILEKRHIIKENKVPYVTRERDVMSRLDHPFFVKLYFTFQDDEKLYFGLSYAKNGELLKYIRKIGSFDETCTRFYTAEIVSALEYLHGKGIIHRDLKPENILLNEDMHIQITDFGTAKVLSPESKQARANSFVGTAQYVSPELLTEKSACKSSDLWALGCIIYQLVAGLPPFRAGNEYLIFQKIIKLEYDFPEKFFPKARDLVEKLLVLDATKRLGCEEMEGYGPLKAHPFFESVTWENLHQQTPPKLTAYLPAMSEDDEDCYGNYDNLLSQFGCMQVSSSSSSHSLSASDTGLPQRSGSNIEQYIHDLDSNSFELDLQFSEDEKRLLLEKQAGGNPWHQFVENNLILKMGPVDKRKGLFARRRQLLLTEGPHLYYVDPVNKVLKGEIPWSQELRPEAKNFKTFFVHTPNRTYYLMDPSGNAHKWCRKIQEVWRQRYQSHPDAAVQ
UniProt P42356, whole entry, looked up: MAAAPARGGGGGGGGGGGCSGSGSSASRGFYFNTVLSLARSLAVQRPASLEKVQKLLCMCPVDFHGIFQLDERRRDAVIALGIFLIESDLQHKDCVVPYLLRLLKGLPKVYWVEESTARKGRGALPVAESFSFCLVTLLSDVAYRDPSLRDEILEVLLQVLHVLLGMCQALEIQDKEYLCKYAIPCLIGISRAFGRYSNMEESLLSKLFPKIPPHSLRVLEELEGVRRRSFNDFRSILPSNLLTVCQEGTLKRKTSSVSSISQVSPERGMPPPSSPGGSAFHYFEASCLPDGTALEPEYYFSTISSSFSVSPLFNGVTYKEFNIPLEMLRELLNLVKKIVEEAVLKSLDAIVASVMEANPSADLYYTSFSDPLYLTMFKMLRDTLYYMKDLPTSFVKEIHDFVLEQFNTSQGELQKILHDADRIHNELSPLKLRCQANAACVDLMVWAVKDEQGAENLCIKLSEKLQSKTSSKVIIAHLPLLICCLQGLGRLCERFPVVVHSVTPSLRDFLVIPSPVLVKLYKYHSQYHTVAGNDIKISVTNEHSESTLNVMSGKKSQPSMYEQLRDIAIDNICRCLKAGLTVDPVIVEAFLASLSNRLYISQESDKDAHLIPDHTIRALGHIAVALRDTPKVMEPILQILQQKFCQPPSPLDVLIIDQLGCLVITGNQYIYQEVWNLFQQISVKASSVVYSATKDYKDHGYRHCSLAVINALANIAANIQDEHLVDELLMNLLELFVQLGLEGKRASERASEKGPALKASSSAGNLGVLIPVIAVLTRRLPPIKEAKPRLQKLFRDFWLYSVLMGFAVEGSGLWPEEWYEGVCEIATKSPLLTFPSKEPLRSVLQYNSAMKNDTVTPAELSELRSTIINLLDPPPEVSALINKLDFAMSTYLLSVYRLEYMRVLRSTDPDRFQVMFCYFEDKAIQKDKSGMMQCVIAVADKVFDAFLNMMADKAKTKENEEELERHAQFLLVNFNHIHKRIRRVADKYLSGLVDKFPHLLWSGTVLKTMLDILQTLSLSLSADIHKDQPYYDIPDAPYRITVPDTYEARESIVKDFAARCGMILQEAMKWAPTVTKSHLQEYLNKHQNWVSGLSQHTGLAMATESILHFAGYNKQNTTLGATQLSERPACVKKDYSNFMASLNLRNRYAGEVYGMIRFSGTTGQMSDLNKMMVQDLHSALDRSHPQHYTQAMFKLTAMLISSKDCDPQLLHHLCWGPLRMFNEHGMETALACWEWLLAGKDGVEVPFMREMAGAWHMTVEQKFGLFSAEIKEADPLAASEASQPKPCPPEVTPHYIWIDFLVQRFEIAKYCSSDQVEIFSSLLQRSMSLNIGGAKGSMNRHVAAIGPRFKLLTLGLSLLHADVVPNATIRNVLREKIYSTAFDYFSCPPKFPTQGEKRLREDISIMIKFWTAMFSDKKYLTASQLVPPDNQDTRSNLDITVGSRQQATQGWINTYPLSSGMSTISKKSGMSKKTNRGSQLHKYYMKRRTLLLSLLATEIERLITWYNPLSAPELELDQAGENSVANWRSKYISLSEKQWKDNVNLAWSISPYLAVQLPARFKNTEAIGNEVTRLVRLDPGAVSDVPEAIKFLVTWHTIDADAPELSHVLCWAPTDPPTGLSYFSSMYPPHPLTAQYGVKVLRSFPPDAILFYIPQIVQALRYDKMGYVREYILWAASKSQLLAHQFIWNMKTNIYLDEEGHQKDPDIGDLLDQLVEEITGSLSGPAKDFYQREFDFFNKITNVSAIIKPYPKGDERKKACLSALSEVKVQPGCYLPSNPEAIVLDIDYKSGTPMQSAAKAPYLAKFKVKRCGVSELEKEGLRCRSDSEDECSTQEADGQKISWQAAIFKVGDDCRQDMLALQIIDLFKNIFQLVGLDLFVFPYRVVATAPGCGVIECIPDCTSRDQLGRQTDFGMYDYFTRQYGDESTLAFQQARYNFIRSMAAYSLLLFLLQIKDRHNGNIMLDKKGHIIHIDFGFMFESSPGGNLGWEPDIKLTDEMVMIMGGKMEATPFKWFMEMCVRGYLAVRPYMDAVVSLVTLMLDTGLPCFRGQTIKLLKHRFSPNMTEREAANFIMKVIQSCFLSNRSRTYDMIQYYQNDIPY
UniProt P53350, whole entry: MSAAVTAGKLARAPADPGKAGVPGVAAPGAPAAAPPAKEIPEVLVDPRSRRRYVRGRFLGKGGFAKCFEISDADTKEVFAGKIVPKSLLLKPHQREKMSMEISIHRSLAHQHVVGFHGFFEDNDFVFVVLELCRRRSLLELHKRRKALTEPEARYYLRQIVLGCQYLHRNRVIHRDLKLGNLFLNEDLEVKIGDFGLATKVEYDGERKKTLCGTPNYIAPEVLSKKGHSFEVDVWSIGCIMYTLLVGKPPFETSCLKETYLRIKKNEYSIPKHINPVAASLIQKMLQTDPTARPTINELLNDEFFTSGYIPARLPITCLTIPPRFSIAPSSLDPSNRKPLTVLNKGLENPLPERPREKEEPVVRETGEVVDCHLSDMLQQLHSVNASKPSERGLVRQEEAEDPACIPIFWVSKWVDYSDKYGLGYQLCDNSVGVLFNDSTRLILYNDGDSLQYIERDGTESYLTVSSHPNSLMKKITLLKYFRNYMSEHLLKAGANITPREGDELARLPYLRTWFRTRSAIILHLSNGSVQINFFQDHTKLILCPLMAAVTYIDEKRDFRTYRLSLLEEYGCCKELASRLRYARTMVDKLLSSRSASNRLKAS
UniProt Q13131: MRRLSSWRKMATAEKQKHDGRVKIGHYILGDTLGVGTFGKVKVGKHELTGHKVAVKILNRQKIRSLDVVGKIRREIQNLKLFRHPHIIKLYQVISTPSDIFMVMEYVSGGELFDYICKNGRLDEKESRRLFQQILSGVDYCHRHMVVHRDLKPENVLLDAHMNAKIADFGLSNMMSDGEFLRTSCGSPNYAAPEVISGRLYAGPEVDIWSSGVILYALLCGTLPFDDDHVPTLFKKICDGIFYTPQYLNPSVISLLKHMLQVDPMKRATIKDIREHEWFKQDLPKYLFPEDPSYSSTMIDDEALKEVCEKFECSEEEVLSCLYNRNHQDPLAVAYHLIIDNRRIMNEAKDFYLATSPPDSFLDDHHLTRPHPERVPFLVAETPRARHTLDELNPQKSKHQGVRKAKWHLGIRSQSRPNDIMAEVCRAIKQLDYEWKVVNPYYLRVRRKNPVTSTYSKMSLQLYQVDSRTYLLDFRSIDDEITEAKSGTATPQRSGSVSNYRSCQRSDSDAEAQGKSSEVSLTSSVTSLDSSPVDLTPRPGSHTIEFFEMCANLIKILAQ
UniProt Q05397, whole entry, looked up: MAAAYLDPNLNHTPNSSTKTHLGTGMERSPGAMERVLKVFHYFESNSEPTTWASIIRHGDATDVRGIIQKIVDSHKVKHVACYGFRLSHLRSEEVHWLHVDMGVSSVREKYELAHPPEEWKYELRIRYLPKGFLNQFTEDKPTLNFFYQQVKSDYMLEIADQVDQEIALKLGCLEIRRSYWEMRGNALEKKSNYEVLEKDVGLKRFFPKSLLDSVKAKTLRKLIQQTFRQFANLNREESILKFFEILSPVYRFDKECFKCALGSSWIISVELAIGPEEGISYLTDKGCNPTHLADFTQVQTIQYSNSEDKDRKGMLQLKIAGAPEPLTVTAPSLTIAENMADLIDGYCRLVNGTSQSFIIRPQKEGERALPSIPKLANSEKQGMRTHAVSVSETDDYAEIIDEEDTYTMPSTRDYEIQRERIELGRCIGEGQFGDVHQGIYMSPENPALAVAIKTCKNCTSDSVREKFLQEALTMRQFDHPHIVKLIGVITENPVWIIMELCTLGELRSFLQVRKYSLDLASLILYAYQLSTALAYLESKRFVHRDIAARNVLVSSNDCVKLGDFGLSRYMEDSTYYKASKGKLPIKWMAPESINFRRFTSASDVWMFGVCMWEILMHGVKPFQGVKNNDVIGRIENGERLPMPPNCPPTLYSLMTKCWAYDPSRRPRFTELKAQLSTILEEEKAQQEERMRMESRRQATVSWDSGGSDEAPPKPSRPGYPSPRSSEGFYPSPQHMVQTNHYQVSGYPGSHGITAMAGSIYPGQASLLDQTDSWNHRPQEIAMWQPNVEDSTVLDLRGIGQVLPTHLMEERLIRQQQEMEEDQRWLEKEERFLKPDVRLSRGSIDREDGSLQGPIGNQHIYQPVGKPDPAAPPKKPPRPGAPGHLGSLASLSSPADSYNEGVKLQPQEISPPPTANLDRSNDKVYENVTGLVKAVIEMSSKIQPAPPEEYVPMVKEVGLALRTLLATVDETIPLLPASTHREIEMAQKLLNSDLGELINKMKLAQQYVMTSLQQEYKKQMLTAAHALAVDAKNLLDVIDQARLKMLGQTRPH
UniProt Q14289, whole entry, looked up: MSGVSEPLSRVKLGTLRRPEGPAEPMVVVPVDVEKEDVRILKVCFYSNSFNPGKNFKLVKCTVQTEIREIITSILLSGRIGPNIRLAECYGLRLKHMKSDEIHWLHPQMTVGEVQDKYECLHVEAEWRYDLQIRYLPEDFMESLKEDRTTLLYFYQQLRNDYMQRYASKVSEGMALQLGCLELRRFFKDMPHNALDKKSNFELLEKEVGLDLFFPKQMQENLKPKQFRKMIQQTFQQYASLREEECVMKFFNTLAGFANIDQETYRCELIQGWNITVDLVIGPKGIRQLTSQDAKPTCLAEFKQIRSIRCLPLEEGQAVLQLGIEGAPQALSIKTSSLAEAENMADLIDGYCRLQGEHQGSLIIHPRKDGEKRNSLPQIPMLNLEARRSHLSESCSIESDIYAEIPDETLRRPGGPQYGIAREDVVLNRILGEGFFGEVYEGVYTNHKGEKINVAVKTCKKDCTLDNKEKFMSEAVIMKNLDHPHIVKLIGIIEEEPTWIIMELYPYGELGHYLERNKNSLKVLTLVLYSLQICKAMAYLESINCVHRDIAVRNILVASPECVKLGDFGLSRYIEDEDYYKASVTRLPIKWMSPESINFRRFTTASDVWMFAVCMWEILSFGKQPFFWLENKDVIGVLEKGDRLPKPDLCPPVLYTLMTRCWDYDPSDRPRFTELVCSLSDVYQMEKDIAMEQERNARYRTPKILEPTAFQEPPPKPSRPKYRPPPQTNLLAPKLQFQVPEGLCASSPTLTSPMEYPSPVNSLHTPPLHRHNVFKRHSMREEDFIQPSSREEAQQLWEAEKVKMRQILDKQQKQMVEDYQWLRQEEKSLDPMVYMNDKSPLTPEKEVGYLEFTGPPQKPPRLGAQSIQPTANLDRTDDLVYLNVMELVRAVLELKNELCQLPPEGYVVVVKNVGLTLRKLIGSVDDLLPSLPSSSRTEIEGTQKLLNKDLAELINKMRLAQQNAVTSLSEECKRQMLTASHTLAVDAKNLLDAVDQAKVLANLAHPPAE

Legend:
Experiment in all cases: kinase-Nluc reporter destabilization hit call (1 = scored as downregulated) (binary); higher = compound decreases kinase abundance
Settings in all cases: K562; 2-18 h
[1] = molecular target: PDPK1 (UniProt O15530)
[2] = molecular target: PIK4CA (UniProt P42356)
[3] = molecular target: PIK4CB (UniProt Q9UBF8)
[4] = molecular target: PLK1 (UniProt P53350)
[5] = molecular target: PRKAA1 (UniProt Q13131)
[6] = molecular target: PRKCA (UniProt P17252)
[7] = molecular target: PTK2 (UniProt Q05397)
[8] = molecular target: PTK2B (UniProt Q14289)
[9] = molecular target: RAF1 (UniProt P04049)
[10] = molecular target: RAF1_S257L (clone: RAF1_mut) (UniProt P04049)

Measured: kinase-Nluc reporter destabilization hit call

CCCCNc1ncc(C(=O)NCc2ccc(-n3ccnc3)cc2)c(NC2CCC(O)CC2)n1 (stereo not drawn) (10 µM)
inactive: [1] 0 | [2] 0 | [3] 0 | [4] 0 | [5] 0 | [6] 0 | [7] 0 | [8] 0 | [9] 0 | [10] 0

Fc1ccc(Cl)cc1-c1nc(Nc2ccncc2)c2nccnc2n1 (10 µM)
inactive: [1] 0 | [2] 0 | [3] 0 | [4] 0 | [5] 0 | [6] 0 | [7] 0 | [9] 0 | [10] 0

O=[N+]([O-])c1ccc(-c2nc(-c3ccc(F)cc3)c(-c3ccncc3)[nH]2)cc1 (10 µM)
inactive: [1] 0 | [2] 0 | [3] 0 | [4] 0 | [5] 0 | [6] 0 | [8] 0 | [9] 0 | [10] 0

N#Cc1cc(N2CCC(C(=O)N3N=CC[C@H]3c3cc(F)cc(F)c3)CC2)ncn1 (10 µM)
inactive: [1] 0 | [2] 0 | [3] 0 | [4] 0 | [5] 0 | [6] 0 | [7] 0 | [8] 0 | [9] 0 | [10] 0

Cc1ccc(NC(=O)N2CCN(c3nc(N)nc4sc(-c5cccnc5)nc34)CC2)cc1 [PI4KIII beta inhibitor 3] (10 µM)
inactive: [1] 0 | [2] 0 | [4] 0 | [5] 0 | [6] 0 | [7] 0 | [8] 0 | [9] 0 | [10] 0

Cc1cccc(-c2nn3c(c2-c2ccnc4ccc(C(N)=O)cc24)CCC3)n1 [Galunisertib] (10 µM)
inactive: [1] 0 | [2] 0 | [3] 0 | [4] 0 | [5] 0 | [6] 0 | [7] 0 | [8] 0 | [9] 0 | [10] 0

CCOc1cc(N2CCC(O)CC2)ccc1Nc1ncc2c(n1)N(C1CCCC1)CCC(=O)N2C (2.5 µM)
inactive: [1] 0 | [2] 0 | [3] 0 | [4] 0 | [5] 0 | [6] 0 | [7] 0 | [8] 0 | [9] 0 | [10] 0

N#C/C(=C/c1ccc(O)c(O)c1)C(=O)N1CCc2ccccc21 [Tyrphostin AG 528] (10 µM)
inactive: [1] 0 | [2] 0 | [3] 0 | [4] 0 | [5] 0 | [6] 0 | [7] 0 | [8] 0 | [9] 0 | [10] 0

CCC(F)(F)c1cc(N2CCC(S(C)(=O)=O)CC2)nc2sc(C(N)=O)c(N)c12 (10 µM)
inactive: [1] 0 | [2] 0 | [3] 0 | [4] 0 | [5] 0 | [6] 0 | [7] 0 | [8] 0 | [9] 0 | [10] 0

O=C1Cc2ccccc2N1 [Oxindole] (10 µM)
inactive: [1] 0 | [2] 0 | [3] 0 | [4] 0 | [5] 0 | [6] 0 | [7] 0 | [8] 0 | [9] 0 | [10] 0

COc1ccc(-c2cc(=O)c3c(O)cc(O)cc3o2)cc1-c1c(O)cc(O)c2c(=O)cc(-c3ccc(O)cc3)oc12 [Bilobetin] (2.5 µM)
inactive: [1] 0 | [2] 0 | [3] 0 | [4] 0 | [5] 0 | [6] 0 | [7] 0 | [8] 0 | [9] 0 | [10] 0

COc1ccc(CN2CCC(c3ccc4nc(C(=O)N5CCN(Cc6ccc(C(F)(F)F)cc6)CC5)[nH]c4c3)CC2)cn1 (2.5 µM)
inactive: [1] 0 | [2] 0 | [3] 0 | [4] 0 | [6] 0 | [7] 0 | [8] 0 | [9] 0 | [10] 0

Cc1nc2c(NCc3cccc(S(C)(=O)=O)c3)nccn2c1-c1ccc(O)c(F)c1 (10 µM)
inactive: [1] 0 | [2] 0 | [4] 0 | [5] 0 | [6] 0 | [7] 0 | [8] 0 | [9] 0 | [10] 0

CC/C(=C(\c1ccccc1)c1ccc(OCCNC)cc1)c1ccccc1 [N-Desmethyltamoxifen (hydrochloride)] (2.5 µM)
inactive: [1] 0 | [2] 0 | [3] 0 | [4] 0 | [5] 0 | [6] 0 | [7] 0 | [8] 0 | [9] 0 | [10] 0

CS(=O)(=O)c1cccc(CNc2nc(Nc3ccc4c(c3)CCC(=O)N4)ncc2C(F)(F)F)c1 (10 µM)
inactive: [1] 0 | [2] 0 | [3] 0 | [4] 0 | [5] 0 | [6] 0 | [8] 0 | [9] 0 | [10] 0

By substructure, those above containing an aryl methoxy group (2)
COc1ccc(-c2cc(=O)c3c(O)cc(O)cc3o2)cc1-c1c(O)cc(O)c2c(=O)cc(-c3ccc(O)cc3)oc12 [Bilobetin] (2.5 µM)
inactive: [1] 0 | [2] 0 | [3] 0 | [4] 0 | [5] 0 | [6] 0 | [7] 0 | [8] 0 | [9] 0 | [10] 0

COc1ccc(CN2CCC(c3ccc4nc(C(=O)N5CCN(Cc6ccc(C(F)(F)F)cc6)CC5)[nH]c4c3)CC2)cn1 (2.5 µM)
inactive: [1] 0 | [2] 0 | [3] 0 | [4] 0 | [6] 0 | [7] 0 | [8] 0 | [9] 0 | [10] 0

Remaining list, next part:

Cc1nc(Nc2cnn(C3CCNCC3)c2)nc2c1N(C)C(=O)c1cc3ccccc3cc1N2C (2.5 µM)
inactive: [1] 0 | [2] 0 | [3] 0 | [4] 0 | [5] 0 | [6] 0 | [7] 0 | [8] 0 | [9] 0 | [10] 0

CCCCC(=O)OCC(=O)[C@]1(O)Cc2c(O)c3c(c(O)c2[C@@H](O[C@H]2C[C@H](NC(=O)C(F)(F)F)[C@H](O)[C@H](C)O2)C1)C(=O)c1c(OC)cccc1C3=O [Valrubicin] (10 µM)
inactive: [1] 0 | [2] 0 | [3] 0 | [4] 0 | [5] 0 | [6] 0 | [7] 0 | [8] 0 | [9] 0 | [10] 0

Cn1c(N2CCO[C@@H](c3ccc(F)cc3)C2)nc(-c2ccncn2)cc1=O (10 µM)
inactive: [1] 0 | [2] 0 | [3] 0 | [4] 0 | [5] 0 | [6] 0 | [7] 0 | [8] 0 | [9] 0 | [10] 0

CN1CCN(Cc2ccc(-c3cn(C4CCC(O)CC4)c4nc(NCCC5CC5)ncc34)cc2)CC1 (stereo not drawn) (2.5 µM)
inactive: [1] 0 | [2] 0 | [3] 0 | [4] 0 | [5] 0 | [6] 0 | [7] 0 | [8] 0 | [9] 0 | [10] 0

O=c1cc(-c2ccc(O[C@@H]3O[C@H](CO)[C@@H](O)[C@H](O)[C@H]3O)cc2)oc2cc(O)c([C@@H]3O[C@H](CO)[C@@H](O)[C@H](O)[C@H]3O[C@@H]3OC[C@H](O)[C@H](O)[C@H]3O)c(O)c12 [Vaccarin] (10 µM)
inactive: [1] 0 | [2] 0 | [3] 0 | [4] 0 | [5] 0 | [6] 0 | [7] 0 | [8] 0 | [9] 0 | [10] 0

C[C@H](Nc1cc2c(-c3ccc4c(c3)OCO4)noc2cn1)c1ccccc1 (10 µM)
inactive: [1] 0 | [2] 0 | [3] 0 | [5] 0 | [6] 0 | [7] 0 | [8] 0 | [9] 0 | [10] 0

NC(=O)c1sc2c([N+](=O)[O-])cc(C(F)(F)F)cc2[n+]1[O-] [Cyclapolin 9] (10 µM)
inactive: [1] 0 | [2] 0 | [3] 0 | [5] 0 | [6] 0 | [7] 0 | [8] 0 | [9] 0 | [10] 0

NC(=O)c1ccccc1Nc1ccnc(Nc2cccc(O)c2)n1 (10 µM)
inactive: [1] 0 | [2] 0 | [3] 0 | [5] 0 | [6] 0 | [7] 0 | [8] 0 | [9] 0
active: [10] 1

CNCc1cc(Oc2ccc3c(ccn3C(=O)Nc3cc(C(F)(F)F)n(C)n3)c2)ncn1 [Acrizanib] (10 µM)
inactive: [1] 0 | [2] 0 | [3] 0 | [4] 0 | [5] 0 | [6] 0 | [7] 0 | [8] 0 | [9] 0 | [10] 0

CC1=C(C#N)C(c2ccc3[nH]nc(C)c3c2)C(C#N)=C(C)N1 (10 µM)
inactive: [1] 0 | [2] 0 | [3] 0 | [4] 0 | [5] 0 | [6] 0 | [7] 0 | [8] 0 | [9] 0 | [10] 0

COc1cc2ncnc(Nc3cc(Br)c(O)c(Br)c3)c2cc1OC (2.5 µM)
inactive: [1] 0 | [2] 0 | [3] 0 | [4] 0 | [5] 0 | [6] 0 | [7] 0 | [8] 0 | [9] 0 | [10] 0

CCc1cc(Nc2nccc(-c3c(-c4ccc(OC)c(C(=O)Nc5c(F)cccc5F)c4)nc4ccccn34)n2)c(OC)cc1N1CCC(N2CCN(S(C)(=O)=O)CC2)CC1 (2.5 µM)
inactive: [1] 0 | [2] 0 | [3] 0 | [4] 0 | [5] 0 | [6] 0 | [7] 0 | [9] 0 | [10] 0

CN1CCN(c2ccc(-n3cc(-c4ccncc4OCC4CCNCC4)cn3)cc2)CC1 [MELK-8a (hydrochloride)] (10 µM)
inactive: [1] 0 | [2] 0 | [3] 0 | [4] 0 | [5] 0 | [6] 0 | [7] 0 | [8] 0 | [9] 0 | [10] 0

COc1cc(N2CCC(O)CC2)ccc1Nc1nc(Nc2ccccc2S(=O)(=O)C(C)C)c2[nH]cnc2n1 (10 µM)
inactive: [1] 0 | [2] 0 | [3] 0 | [4] 0 | [5] 0 | [6] 0 | [7] 0 | [8] 0 | [9] 0 | [10] 0

Cc1cc2c(F)c(Oc3ncnn4cc(OC[C@@H](C)OC(=O)[C@H](C)N)c(C)c34)ccc2[nH]1 [Brivanib (alaninate)] (10 µM)
inactive: [1] 0 | [2] 0 | [3] 0 | [4] 0 | [5] 0 | [6] 0 | [7] 0 | [8] 0 | [9] 0 | [10] 0

O=C(O)/C=C(\CCc1ccc(Cl)cc1)c1ccccc1 (10 µM)
inactive: [2] 0 | [3] 0 | [4] 0 | [5] 0 | [6] 0 | [7] 0 | [8] 0 | [9] 0 | [10] 0

CCCCNc1ncc2c(-c3ccc(F)cc3)nn(CC3CCC(N)CC3)c2n1 (stereo not drawn) (2.5 µM)
inactive: [1] 0 | [2] 0 | [3] 0 | [4] 0 | [5] 0 | [6] 0 | [7] 0 | [8] 0 | [9] 0 | [10] 0

CC(C)=CCC[C@](C)(O[C@@H]1O[C@H](CO[C@@H]2O[C@H](CO)[C@@H](O)[C@H](O)[C@H]2O)[C@@H](O)[C@H](O)[C@H]1O)[C@H]1CC[C@]2(C)[C@@H]1[C@H](O)C[C@@H]1[C@@]3(C)CC[C@H](O[C@@H]4O[C@H](CO)[C@@H](O)[C@H](O)[C@H]4O[C@@H]4O[C@H](CO)[C@@H](O)[C@H](O)[C@H]4O)C(C)(C)[C@@H]3CC[C@]12C [Ginsenoside Rb1] (10 µM)
inactive: [1] 0 | [2] 0 | [3] 0 | [4] 0 | [6] 0 | [7] 0 | [8] 0 | [9] 0 | [10] 0

O=C1OC(COc2ccccc2[N+](=O)[O-])CC1Cc1ccccc1 (stereo not drawn) (10 µM)
inactive: [1] 0 | [2] 0 | [3] 0 | [4] 0 | [5] 0 | [6] 0 | [7] 0 | [8] 0 | [9] 0 | [10] 0
